Results are given in words; binding and its absence hold for the method and conditions named. Some binding calls cover weakened binding; strength is not graded here.
Target: human αvβ6 integrin, soluble protein (biotinylated for yeast display; in solution for BLI) (human) (UniProt P06756+P18564)
Assay: assay not named

By UniProt entry, the sequences of proteins in these tests, tags left out. Where a name states a change or a piece, a line headed by the entry shows the natural chain unless it says otherwise.
UniProt P06756: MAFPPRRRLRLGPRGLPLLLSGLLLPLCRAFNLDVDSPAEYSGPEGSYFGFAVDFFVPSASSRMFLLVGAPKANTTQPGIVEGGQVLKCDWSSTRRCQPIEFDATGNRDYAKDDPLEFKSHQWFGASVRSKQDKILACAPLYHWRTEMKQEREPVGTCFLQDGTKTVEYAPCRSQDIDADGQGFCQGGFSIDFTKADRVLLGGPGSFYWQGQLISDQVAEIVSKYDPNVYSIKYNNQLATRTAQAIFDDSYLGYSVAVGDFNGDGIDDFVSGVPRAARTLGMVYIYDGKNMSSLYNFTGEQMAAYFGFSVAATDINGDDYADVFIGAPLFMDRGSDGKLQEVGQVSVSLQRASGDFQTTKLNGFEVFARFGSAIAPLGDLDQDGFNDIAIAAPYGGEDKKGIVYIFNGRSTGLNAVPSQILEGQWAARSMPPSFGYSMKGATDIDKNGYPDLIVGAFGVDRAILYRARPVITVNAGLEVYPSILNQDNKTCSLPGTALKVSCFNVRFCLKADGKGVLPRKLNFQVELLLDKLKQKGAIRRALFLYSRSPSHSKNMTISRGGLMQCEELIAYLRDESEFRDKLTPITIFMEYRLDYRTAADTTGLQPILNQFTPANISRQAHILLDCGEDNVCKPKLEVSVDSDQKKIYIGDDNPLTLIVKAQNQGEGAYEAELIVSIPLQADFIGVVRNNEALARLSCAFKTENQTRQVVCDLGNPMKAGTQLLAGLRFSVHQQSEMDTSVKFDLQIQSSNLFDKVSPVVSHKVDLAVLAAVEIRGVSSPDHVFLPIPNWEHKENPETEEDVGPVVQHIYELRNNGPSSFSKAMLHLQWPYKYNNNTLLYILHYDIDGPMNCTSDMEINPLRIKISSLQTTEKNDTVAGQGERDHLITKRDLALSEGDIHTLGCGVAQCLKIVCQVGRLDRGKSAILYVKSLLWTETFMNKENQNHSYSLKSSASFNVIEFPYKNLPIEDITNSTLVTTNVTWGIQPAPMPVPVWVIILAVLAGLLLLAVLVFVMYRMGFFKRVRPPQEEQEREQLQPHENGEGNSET
UniProt P18564: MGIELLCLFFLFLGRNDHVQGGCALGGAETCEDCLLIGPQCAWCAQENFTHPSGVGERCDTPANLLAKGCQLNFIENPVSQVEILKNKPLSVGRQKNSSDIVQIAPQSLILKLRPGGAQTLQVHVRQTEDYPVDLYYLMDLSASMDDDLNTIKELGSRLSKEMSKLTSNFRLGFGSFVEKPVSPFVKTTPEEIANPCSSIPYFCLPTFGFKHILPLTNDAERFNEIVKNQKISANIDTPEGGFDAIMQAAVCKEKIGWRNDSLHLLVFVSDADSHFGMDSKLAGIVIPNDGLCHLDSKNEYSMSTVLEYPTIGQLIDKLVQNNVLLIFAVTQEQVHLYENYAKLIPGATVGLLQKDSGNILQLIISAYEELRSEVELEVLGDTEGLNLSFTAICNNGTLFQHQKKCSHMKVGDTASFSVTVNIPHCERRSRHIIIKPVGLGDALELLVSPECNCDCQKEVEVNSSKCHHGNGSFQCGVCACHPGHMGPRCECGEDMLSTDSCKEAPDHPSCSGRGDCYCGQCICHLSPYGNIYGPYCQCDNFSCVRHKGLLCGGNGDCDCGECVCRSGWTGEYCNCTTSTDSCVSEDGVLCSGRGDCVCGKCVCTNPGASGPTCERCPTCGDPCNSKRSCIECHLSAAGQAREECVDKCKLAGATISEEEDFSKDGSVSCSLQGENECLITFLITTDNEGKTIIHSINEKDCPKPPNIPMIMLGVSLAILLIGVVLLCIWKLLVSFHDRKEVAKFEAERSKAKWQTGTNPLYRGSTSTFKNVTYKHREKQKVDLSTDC

binding: binds
B1: BP1_disulf (E13T_disulf2) (designed binder)
chain: MTKCVVRFVFRGDLATLMLRAVKDHLKKEGPHWNITSTNNGAELVVRGIHESDAKRIAKWVEKRFPGVHTETQCD
modifications: one engineered intramolecular disulfide bond

From patent publication US20220348609A1 (University of Washington, published 2022)
